The text below walks through data of paper doi:10.1101/295832.

The chains behind the UniProt entries cited, without tags or fusion partners. Where a name states a change or a piece, a line headed by the entry shows the natural chain unless it says otherwise. Residues count along the entry.
UniProt P40763: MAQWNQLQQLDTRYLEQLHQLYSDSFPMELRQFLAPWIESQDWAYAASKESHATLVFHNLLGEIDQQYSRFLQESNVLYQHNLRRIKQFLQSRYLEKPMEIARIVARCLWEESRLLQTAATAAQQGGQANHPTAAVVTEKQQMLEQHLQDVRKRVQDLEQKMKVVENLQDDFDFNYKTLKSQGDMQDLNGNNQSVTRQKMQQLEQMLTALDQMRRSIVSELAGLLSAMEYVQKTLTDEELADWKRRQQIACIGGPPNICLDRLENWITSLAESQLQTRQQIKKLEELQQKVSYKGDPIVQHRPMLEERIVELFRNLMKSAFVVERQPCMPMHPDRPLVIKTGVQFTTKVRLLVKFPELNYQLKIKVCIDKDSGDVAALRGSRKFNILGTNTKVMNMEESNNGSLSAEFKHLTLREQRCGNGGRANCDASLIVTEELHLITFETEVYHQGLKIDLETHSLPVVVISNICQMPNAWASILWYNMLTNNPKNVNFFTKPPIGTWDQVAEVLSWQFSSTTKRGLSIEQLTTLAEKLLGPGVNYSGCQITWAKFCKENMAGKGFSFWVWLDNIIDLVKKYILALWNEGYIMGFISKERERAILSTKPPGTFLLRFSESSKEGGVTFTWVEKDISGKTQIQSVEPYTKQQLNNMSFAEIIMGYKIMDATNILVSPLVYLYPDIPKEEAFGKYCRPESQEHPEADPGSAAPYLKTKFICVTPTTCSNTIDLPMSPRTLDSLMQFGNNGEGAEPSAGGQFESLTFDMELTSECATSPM
STAT3 SH2 (STAT3 deletion construct): residues 580-670 of P40763

Results are given in words; binding and its absence hold for the method and conditions named. In cells and extracts the contact can be indirect. Some binding calls cover weakened binding; strength is not graded here. For some assays here: Sequences can lack the tags named with a protein.

Common to all, as to assay: co-IP
The target in test [1] is T1, Mesoderm specific transcript (MEST), endogenous (human (endogenous in MDA-MB-231 and Hs578T)) (UniProt Q5EB52).
T1 sequence: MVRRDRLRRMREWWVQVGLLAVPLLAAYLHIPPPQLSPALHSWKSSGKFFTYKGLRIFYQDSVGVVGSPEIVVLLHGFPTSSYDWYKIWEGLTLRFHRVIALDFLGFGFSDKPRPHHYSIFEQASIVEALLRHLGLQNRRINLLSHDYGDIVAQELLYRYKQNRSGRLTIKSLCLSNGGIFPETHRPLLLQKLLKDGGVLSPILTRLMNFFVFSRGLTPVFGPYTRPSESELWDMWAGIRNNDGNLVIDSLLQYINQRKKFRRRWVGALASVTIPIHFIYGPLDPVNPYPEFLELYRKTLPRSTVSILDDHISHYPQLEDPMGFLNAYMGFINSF

Test [2] concerns the target Flag-STAT3 (wild type) (UniProt P40763).
In test [3] the target is STAT3, endogenous (human (endogenous in MDA-MB-231, Hs578T and SUM159PT)) (UniProt P40763).
In test [4] the target is STAT3 SH2 (STAT3 deletion construct) (UniProt P40763).

“STAT3, endogenous (from UniProt P40763 1-770)”: the binding result in test [1] was “binds”.

B1: V5-MESTΔC (domain or fragment, UniProt Q5EB52 1-286)
chain: MVRRDRLRRMREWWVQVGLLAVPLLAAYLHIPPPQLSPALHSWKSSGKFFTYKGLRIFYQDSVGVVGSPEIVVLLHGFPTSSYDWYKIWEGLTLRFHRVIALDFLGFGFSDKPRPHHYSIFEQASIVEALLRHLGLQNRRINLLSHDYGDIVAQELLYRYKQNRSGRLTIKSLCLSNGGIFPETHRPLLLQKLLKDGGVLSPILTRLMNFFVFSRGLTPVFGPYTRPSESELWDMWAGIRNNDGNLVIDSLLQYINQRKKFRRRWVGALASVTIPIHFIYGPLDPV
Turning to B1, in test [2], the binding entry is given as “no binding”.

B2: Mesoderm specific transcript (MEST), endogenous (protein, UniProt Q5EB52 1-335)
chain: MVRRDRLRRMREWWVQVGLLAVPLLAAYLHIPPPQLSPALHSWKSSGKFFTYKGLRIFYQDSVGVVGSPEIVVLLHGFPTSSYDWYKIWEGLTLRFHRVIALDFLGFGFSDKPRPHHYSIFEQASIVEALLRHLGLQNRRINLLSHDYGDIVAQELLYRYKQNRSGRLTIKSLCLSNGGIFPETHRPLLLQKLLKDGGVLSPILTRLMNFFVFSRGLTPVFGPYTRPSESELWDMWAGIRNNDGNLVIDSLLQYINQRKKFRRRWVGALASVTIPIHFIYGPLDPVNPYPEFLELYRKTLPRSTVSILDDHISHYPQLEDPMGFLNAYMGFINSF
Take B2: in test [3], the binding entry is “binds”.

B3: V5-MEST (full-length MEST) (protein, UniProt Q5EB52 1-335)
chain: MVRRDRLRRMREWWVQVGLLAVPLLAAYLHIPPPQLSPALHSWKSSGKFFTYKGLRIFYQDSVGVVGSPEIVVLLHGFPTSSYDWYKIWEGLTLRFHRVIALDFLGFGFSDKPRPHHYSIFEQASIVEALLRHLGLQNRRINLLSHDYGDIVAQELLYRYKQNRSGRLTIKSLCLSNGGIFPETHRPLLLQKLLKDGGVLSPILTRLMNFFVFSRGLTPVFGPYTRPSESELWDMWAGIRNNDGNLVIDSLLQYINQRKKFRRRWVGALASVTIPIHFIYGPLDPVNPYPEFLELYRKTLPRSTVSILDDHISHYPQLEDPMGFLNAYMGFINSF
For the molecule B3, the figures for the binding result in test [2] and in test [4] were “binds” and “no binding”, respectively.
